Results deposited as PubChem BioAssay AID1224828 (NIAID, 2016)
Test: 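Knock-downs that increase or decrease LPS-induced p65 nuclear translocation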 (primary screen). Cell system: mouse RAW264.7 G9 macrophage reporter cells (GFP-p65, Tnf promoter-mCherry). Knock-down reagent: siRNA pool against mouse genes, 100 nM. Duration: 2 days siRNA transfection, then 40 min LPS before fixation. Conditions: LPS (Salmonella minnesota R595) at 10 ng/ml. Measurement: 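Microscopy ratio of nuclear to perinuclear-ring GFP-p65 signal, scaled to the plate median; gene score is the average of two replicate robust z-scores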. Scale: p65 translocation robust z-score: higher = more nuclear NF-kappaB p65 after LPS than the plate median; nuclear/cytoplasmic p65 ratio: higher = more nuclear NF-kappaB p65. Call rule: 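Called active when z exceeds 3.3 or falls under -1.56 (median of Tlr4 controls), giving activity score of at least 50; no calls for control wells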. Meaning of the calls: active = hit (p65 shift raised or lowered); inactive = no clear change.
This is an unselected part of about 17,000 deposited reagents. 762 of all reagents (4.5%) count as active. 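Active calls include both raised and lowered p65 entry, mostly lowered; wells with fewer than 50 cells lack a z-score.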 The raw values are shown without normalisation. Reagents against one gene are numbered here. Reagent sequences are not shown.

target	reagent no.	p65 translocation robust z-score	nuclear/cytoplasmic p65 ratio, rep 1	nuclear/cytoplasmic p65 ratio, rep 2	low cell count flag	Outcome
Slc35a5	1		1.28	1.19	fewer than 50 cells per well; well left out of scoring	inactive
Trim54 (tripartite motif-containing 54)	1	2.19	1.8	1.39	enough cells to score	inactive
Mrpl17 (mitochondrial ribosomal protein L17)	1	0.42	1.85	1.66	enough cells to score	inactive
Prl6a1 (prolactin family 6, subfamily a, member 1)	1	2.35	1.79	1.39	enough cells to score	inactive
Atpaf1 (ATP synthase mitochondrial F1 complex assembly factor 1)	1	-1.28	1.4	1.35	enough cells to score	inactive
Nr4a3 (nuclear receptor subfamily 4, group A, member 3)	1	-1.13	1.31	1.25	enough cells to score	inactive
Igbp1b (immunoglobulin (CD79A) binding protein 1b)	1	2.36	1.91	1.72	enough cells to score	inactive
Hnf1a (HNF1 homeobox A)	1	-0.52	1.48	1.41	enough cells to score	inactive
Cts6 (cathepsin 6)	1	-1.44	1.34	1.57	enough cells to score	inactive
Prkch (protein kinase C, eta)	1	-0.67	1.55	1.32	enough cells to score	inactive
Pou2f1 (POU domain, class 2, transcription factor 1)	1	2.32	1.63	1.88	enough cells to score	inactive
Dnmt3l (DNA methyltransferase 3-like)	1	-1.71	1.24	1.14	enough cells to score	active
Tnfsf9 (tumor necrosis factor (ligand) superfamily, member 9)	1		0	1.3	fewer than 50 cells per well; well left out of scoring	inactive
Slc17a2	1	0.61	1.8	1.76	enough cells to score	inactive
Ift22 (intraflagellar transport 22)	1	-0.24	1.38	1.17	enough cells to score	inactive
Adck1 (aarF domain containing kinase 1)	1	0.05	1.56	1.75	enough cells to score	inactive
Mia2 (MIA SH3 domain ER export factor 2)	1	-1.06	1.58	1.37	enough cells to score	inactive
Mia2 (MIA SH3 domain ER export factor 2)	2	1.17	1.89	1.73	enough cells to score	inactive
3830403N18Rik (RIKEN cDNA 3830403N18 gene)	1		1.15	1.18	fewer than 50 cells per well; well left out of scoring	inactive
Or52z12 (olfactory receptor family 52 subfamily Z member 12)	1		1.55	1.41	fewer than 50 cells per well; well left out of scoring	inactive
Mucl1 (mucin-like 1)	1	0.29	1.46	1.27	enough cells to score	inactive
Cwh43 (cell wall biogenesis 43 C-terminal homolog)	1		1.12	1.4	fewer than 50 cells per well; well left out of scoring	inactive
Or1f12 (olfactory receptor family 1 subfamily F member 12)	1	3.46	2	1.99	enough cells to score	active
Fxyd5 (FXYD domain-containing ion transport regulator 5)	1	0.99	1.79	1.55	enough cells to score	inactive
Nxn (nucleoredoxin)	1	0	1.73	1.52	enough cells to score	inactive
Thap2 (THAP domain containing, apoptosis associated protein 2)	1	-1.11	1.26	1.41	enough cells to score	inactive
Adam22 (a disintegrin and metallopeptidase domain 22)	1	0.46	1.7	1.68	enough cells to score	inactive
Hycc2 (hyccin PI4KA lipid kinase complex subunit 2)	1	0.32	1.51	1.53	enough cells to score	inactive
Vmn2r-ps11 (vomeronasal 2, receptor, pseudogene 11)	1	0.06	1.36	1.22	enough cells to score	inactive
Vmn1r17 (vomeronasal 1 receptor 17)	1	2.19	1.71	1.44	enough cells to score	inactive
Zfp280d (zinc finger protein 280D)	1	-0.3	1.53	1.83	enough cells to score	inactive
Adcy8 (adenylate cyclase 8)	1	0.33	1.6	1.8	enough cells to score	inactive
Lmcd1 (LIM and cysteine-rich domains 1)	1	-2.55	1.31	1.13	enough cells to score	active
Cdpf1 (cysteine rich, DPF motif domain containing 1)	1	-0.05	1.3	1.35	enough cells to score	inactive
Apom (apolipoprotein M)	1	-0.58	1.54	1.53	enough cells to score	inactive
Prss46 (serine protease 46)	1	-0.23	1.31	1.44	enough cells to score	inactive
Pla2g5 (phospholipase A2, group V)	1	-0.58	1.37	1.38	enough cells to score	inactive
Snapin (SNAP-associated protein)	1		1.13	1.05	fewer than 50 cells per well; well left out of scoring	inactive
Ceacam9 (CEA cell adhesion molecule 9)	1	0.43	1.65	1.86	enough cells to score	inactive
Dnmt3b (DNA methyltransferase 3B)	1	0.74	1.67	1.4	enough cells to score	inactive
Nr2c2 (nuclear receptor subfamily 2, group C, member 2)	1	1.16	1.64	1.54	enough cells to score	inactive

Not a retest: an excerpt of the list.
target	reagent no.	p65 translocation robust z-score	nuclear/cytoplasmic p65 ratio, rep 1	nuclear/cytoplasmic p65 ratio, rep 2	low cell count flag	Outcome
Atpaf1 (ATP synthase mitochondrial F1 complex assembly factor 1)	1	-1.28	1.4	1.35	enough cells to score	inactive
Nr4a3 (nuclear receptor subfamily 4, group A, member 3)	1	-1.13	1.31	1.25	enough cells to score	inactive
Igbp1b (immunoglobulin (CD79A) binding protein 1b)	1	2.36	1.91	1.72	enough cells to score	inactive
Hnf1a (HNF1 homeobox A)	1	-0.52	1.48	1.41	enough cells to score	inactive
Cts6 (cathepsin 6)	1	-1.44	1.34	1.57	enough cells to score	inactive
Prkch (protein kinase C, eta)	1	-0.67	1.55	1.32	enough cells to score	inactive
Pou2f1 (POU domain, class 2, transcription factor 1)	1	2.32	1.63	1.88	enough cells to score	inactive
Dnmt3l (DNA methyltransferase 3-like)	1	-1.71	1.24	1.14	enough cells to score	active
Tnfsf9 (tumor necrosis factor (ligand) superfamily, member 9)	1		0	1.3	fewer than 50 cells per well; well left out of scoring	inactive
Slc17a2	1	0.61	1.8	1.76	enough cells to score	inactive
Ift22 (intraflagellar transport 22)	1	-0.24	1.38	1.17	enough cells to score	inactive
Adck1 (aarF domain containing kinase 1)	1	0.05	1.56	1.75	enough cells to score	inactive

The results go on.
target	reagent no.	p65 translocation robust z-score	nuclear/cytoplasmic p65 ratio, rep 1	nuclear/cytoplasmic p65 ratio, rep 2	low cell count flag	Outcome
Mios (meiosis regulator for oocyte development)	1	1.58	1.8	2.13	enough cells to score	inactive
Aadacl2fm1 (AADACL2 family member 1)	1	0.12	1.45	1.53	enough cells to score	inactive
Xk	1	0.56	1.66	1.52	enough cells to score	inactive
Nrip1 (nuclear receptor interacting protein 1)	1	-1.47	1.23	1.21	enough cells to score	inactive
Akt1s1 (AKT1 substrate 1)	1	-2.04	1.27	1.4	enough cells to score	active
Art3 (ADP-ribosyltransferase 3)	1	0.92	1.8	1.72	enough cells to score	inactive
Ebpl (emopamil binding protein-like)	1	0.49	1.53	1.35	enough cells to score	inactive
Evi5l (ecotropic viral integration site 5 like)	1	-0.83	1.55	1.28	enough cells to score	inactive
Or5ac17 (olfactory receptor family 5 subfamily AC member 17)	1	1.86	1.86	1.69	enough cells to score	inactive
Crcp (calcitonin gene-related peptide-receptor component protein)	1	0.11	1.63	1.76	enough cells to score	inactive
Krtap19-1 (keratin associated protein 19-1)	1	-2.63	1.21	1.05	enough cells to score	active
Klrc2 (killer cell lectin-like receptor subfamily C, member 2)	1	-1.88	1.27	1.18	enough cells to score	active
Dennd2a (DENN domain containing 2A)	1	0.18	1.63	1.85	enough cells to score	inactive
Fga (fibrinogen alpha chain)	1	-1.01	1.29	1.28	enough cells to score	inactive
Gpha2 (glycoprotein hormone alpha 2)	1	0.15	1.63	1.58	enough cells to score	inactive
Drd4 (dopamine receptor D4)	1	-0.29	1.43	1.35	enough cells to score	inactive
Me2 (malic enzyme 2, NAD(+)-dependent, mitochondrial)	1	-1.17	1.52	1.39	enough cells to score	inactive
Cdx1 (caudal type homeobox 1)	1	-1.88	1.18	1.16	enough cells to score	active
Rab7 (RAB7, member RAS oncogene family)	1	0.33	1.5	1.62	enough cells to score	inactive
Puf60 (poly-U binding splicing factor 60)	1	-0.04	1.4	1.95	enough cells to score	inactive
Cct2 (chaperonin containing TCP1 subunit 2)	1	-0.45	1.33	1.32	enough cells to score	inactive
Or6c216 (olfactory receptor family 6 subfamily C member 216)	1	0.29	1.47	1.3	enough cells to score	inactive
Rpe65 (retinal pigment epithelium 65)	1	-0.13	1.56	1.44	enough cells to score	inactive
Grk6 (G protein-coupled receptor kinase 6)	1	0.77	1.75	1.67	enough cells to score	inactive
Slc6a20b	1	0.5	1.83	1.31	enough cells to score	inactive
Kctd19 (potassium channel tetramerisation domain containing 19)	1		1.2	1.36	fewer than 50 cells per well; well left out of scoring	inactive
Nek7 (NIMA (never in mitosis gene a)-related expressed kinase 7)	1	0.38	1.74	1.43	enough cells to score	inactive
Pcdha1 (protocadherin alpha 1)	1	0.65	1.56	1.29	enough cells to score	inactive
Samd11 (sterile alpha motif domain containing 11)	1	-0.62	1.56	1.66	enough cells to score	inactive
Fat1 (FAT atypical cadherin 1)	1	0.9	1.64	1.47	enough cells to score	inactive
Serpinb7 (serine (or cysteine) peptidase inhibitor, clade B, member 7)	1	0.02	1.35	1.31	enough cells to score	inactive
Fosb (Fos B proto-oncogene, AP-1 transcription factor subunit)	1	-1.39	1.27	1.18	enough cells to score	inactive
Serpine1 (serine (or cysteine) peptidase inhibitor, clade E, member 1)	1	-1.01	1.4	1.42	enough cells to score	inactive
Myh7 (myosin, heavy polypeptide 7, cardiac muscle, beta)	1	-0.83	1.3	1.26	enough cells to score	inactive
